Laboratory results: PubChem BioAssay AID1259425 (University of Nebraska Medical Center, 2018)
Purpose: 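Find knockdowns that reproduce the gene expression pattern seen when KSR1 is lost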 (primary screen). Cells: HCT116 human colon cancer cells. Knock-down reagent: siRNA pool against human genes, 50 nM siRNA. Read-out: 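mRNA of six signature genes measured together by branched-DNA assay after 50 nM siRNA pool, blank removed, divided by geometric mean of two housekeeping genes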. Direction: BNIP3L mRNA: higher = more BNIP3L transcript after knockdown.
This is an unselected part of about 14,000 reagents. Further read-outs or replicates are left out here. Reagent sequences are not shown. Not stated in the record: the time to read-out.

POU2F2 (POU class 2 homeobox 2) [SID363993858]: BNIP3L mRNA, set 1 = 0.0802
CSTB (cystatin B) [SID363991437]: BNIP3L mRNA, set 1 = 0.0517
NDUFS2 (NADH:ubiquinone oxidoreductase core subunit S2) [SID363995521]: BNIP3L mRNA, set 1 = 0.0693
UMOD (uromodulin) [SID363994473]: BNIP3L mRNA, set 1 = 0.133
RUFY3 (RUN and FYVE domain containing 3) [SID363999227]: BNIP3L mRNA, set 1 = 0.182

Continued, starting with the last 2 of the part before.
UMOD (uromodulin) [SID363994473]: BNIP3L mRNA, set 1 = 0.133
RUFY3 (RUN and FYVE domain containing 3) [SID363999227]: BNIP3L mRNA, set 1 = 0.182
CARS2 (cysteinyl-tRNA synthetase 2, mitochondrial) [SID364002856]: BNIP3L mRNA, set 1 = 0.178
NBL1 (NBL1, DAN family BMP antagonist) [SID363996290]: BNIP3L mRNA, set 1 = 0.0597
DPP3 (dipeptidyl peptidase 3) [SID363996587]: BNIP3L mRNA, set 1 = 0.102
FIZ1 (FLT3 interacting zinc finger 1) [SID364004213]: BNIP3L mRNA, set 1 = 0.263
AMY2A (amylase alpha 2A) [SID363991998]: BNIP3L mRNA, set 1 = 0.0616
FAM204A (family with sequence similarity 204 member A) [SID364002299]: BNIP3L mRNA, set 1 = 0.25
MED18 (mediator complex subunit 18) [SID364000409]: BNIP3L mRNA, set 1 = 0.125
